Experimental data taken from PubChem BioAssay AID2685 (National Center for Advancing Translational Sciences (NCATS), 2010).
Some of the results follow. Shown are side measurements of this screen, not its main read-out; they come without a call. Compounds called inactive in the main read-out are mostly missing here. Words in brackets tell the shape of the fitted curve; partial curves, single points and poor fits give uncertain potencies.

Assay: qHTS Assay for Lipid Storage Modulators in Drosophila S3 Cells;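 on cell number change: cells counted by Cell Tracker Red CMTPX staining in the red channel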
Conditions: BODIPY lipid droplet fluorescence, 18-24 h; for cell number change: measured here: cell count max response, cells fed with added oleic acid
Outline: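 Laser-scanning cytometry quantifies lipid droplet accumulation (500–530 nm total intensity; droplet/cell object ratio) in oleic acid-fed (400 uM added) Drosophila S3 cells treated with a concentration series. 20 uM Triacsin C defined 100% inhibition.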

[1] = measured here: lipid fluorescence (Fed channel) AC50, cells fed with added oleic acid
[2] = measured here: cell number channel AC50, cells fed with added oleic acid

Structure (SMILES): COc1ccccc1N1CCN(C2CCCN(C(=O)c3cccc(-c4ccco4)c3)C2)CC1 (configuration not stated)
- cell number change: -8.71%
- AC50 [1]: 3.26 µM [rising, single point]

Structure (SMILES): Cc1ccc(/C=N/NC(=O)CSc2nc3nc(C)cc(C)n3n2)cc1
- cell number change: 79.9%

Structure (SMILES): COCCCn1c(=O)c2sccc2n2c(CCCC(=O)N3CCN(c4ccccn4)CC3)nnc12
- AC50 [1]: 6.51 µM [falling, single point]

Structure (SMILES): CC(C)C(=O)Nc1cccc(NC(=O)c2cc3ccccc3o2)c1
- AC50 [2]: 2.31 µM [rising, partial curve]
- AC50 [1]: 2.31 µM [rising, partial curve]

Structure (SMILES): CCO[C@@H]1OC(C(=O)NCc2nc3ccccc3[nH]2)=C[C@H](c2ccc(C(F)(F)F)cc2)[C@H]1CCCO
- cell number change: -46.5%
- AC50 [2]: 29.1 µM [falling, single point]
- AC50 [1]: 29.1 µM [falling, single point]

Structure (SMILES): CCN(CC)C(=O)Oc1ccc2cc(Br)ccc2c1
- cell number change: 47.5%
- AC50 [2]: 10.3 µM [rising, partial curve]
- AC50 [1]: 13 µM [rising, partial curve]

Structure (SMILES): O=[N+]([O-])c1ccccc1/C=C/CN1CCN(Cc2ccc3c(c2)OCO3)CC1
- cell number change: -1.4%
- AC50 [1]: 29.1 µM [rising, single point]

Structure (SMILES): O=C(N/N=C/c1ccco1)c1cc(-c2ccc(Cl)cc2)n[nH]1
- cell number change: -21.6%

Structure (SMILES): CN(C(=O)COC(=O)/C=C/c1ccc2ccccc2n1)C1CCS(=O)(=O)C1 (configuration not stated)
- cell number change: 11.2%
- AC50 [2]: 0.731 µM [rising, partial curve, poor fit]

Structure (SMILES): CCCCCCOC(=O)/C=C/c1c(C)[nH]c(=O)[nH]c1=O
- cell number change: 58%
- AC50 [2]: 2.91 µM [rising, full curve]
- AC50 [1]: 5.8 µM [rising, partial curve]

Structure (SMILES): Cc1csc(SCC(=O)N(C)c2c(N)n(Cc3ccccc3)c(=O)[nH]c2=O)n1
- AC50 [2]: 0.146 µM [rising, single point]

Structure (SMILES): Cc1nc(-c2ccc(Cl)cc2)sc1C(=O)NN
- cell number change: -1.93%
- AC50 [1]: 0.231 µM [rising, full curve, poor fit]

Structure (SMILES): O=C(NNc1nc2ccc(F)cc2s1)c1cccc(F)c1
- cell number change: 15.7%

Structure (SMILES): Cc1ccc(NC(=O)Nc2ccccc2CC[N+](=O)[O-])cc1
- cell number change: -28.9%

Structure (SMILES): COC(=O)c1ccc(N)cc1O
- cell number change: 1.86%

Structure (SMILES): CCOc1ccc(NC(=O)NC2CCCCCCC2)cc1
- cell number change: -17.3%
- AC50 [1]: 29.1 µM [falling, single point]

Structure (SMILES): Cc1[nH]c2ccccc2c1C(=O)CSc1ccccc1
- cell number change: -24%
- AC50 [1]: 29.1 µM [falling, single point]

Structure (SMILES): COc1ccc(-c2cn(Cc3ccc(C(N)=O)cc3)c(-c3ccc(Cl)nc3)n2)cc1
- cell number change: -5.79%
- AC50 [1]: 29.1 µM [rising, single point]

Structure (SMILES): O=C(Nc1nnc(-c2ccco2)o1)c1ccc([N+](=O)[O-])s1
- cell number change: -19.4%
- AC50 [1]: 6.51 µM [falling, single point]

Structure (SMILES): CC(C)n1nc(C(=O)Nc2ccccc2N2CCOCC2)c2ccccc2c1=O
- cell number change: 13.3%
- AC50 [1]: 0.651 µM [falling, single point]

Structure (SMILES): CN(C)C(=O)c1cc2cc(Br)ccc2s1
- cell number change: 8.31%
- AC50 [2]: 3.26 µM [falling, single point]
- AC50 [1]: 3.66 µM [falling, single point]

Structure (SMILES): O=C(Nc1cccc(Cl)c1)N1CCc2ccccc2C1
- cell number change: 1.72%
- AC50 [1]: 32.6 µM [falling, single point]

Structure (SMILES): CCOC(=O)N1CCC(NC(=O)CC2C(=O)NCCN2Cc2cccc(F)c2F)CC1 (configuration not stated)
- cell number change: 2.05%
- AC50 [1]: 6.51 µM [falling, single point]

Structure (SMILES): CCOc1ccccc1CNc1ccc(O)cc1
- cell number change: -64.9%
- AC50 [2]: 29.1 µM [falling, single point]
- AC50 [1]: 29.1 µM [falling, single point]

Structure (SMILES): Cc1ccc(C)c(NC(=S)N(Cc2cccc(Br)c2)CC2CCC(C(=O)O)CC2)c1 (configuration not stated)
- AC50 [1]: 6.51 µM [rising, single point]

Structure (SMILES): C=CCOc1ccc2nnc(C)n2n1
- cell number change: -0.505%
- AC50 [1]: 9.2 µM [rising, partial curve]

Structure (SMILES): CCCOc1cccc(C(=O)NCCNC(=O)c2ccccn2)c1
- cell number change: -28.9%
- AC50 [2]: 0.184 µM [rising, partial curve]

Structure (SMILES): CN(C)N=Nc1ccc2nc[nH]c2c1
- AC50 [2]: 3.26 µM [rising, partial curve, poor fit]
- AC50 [1]: 29.1 µM [rising, single point]

Structure (SMILES): Cc1ccc(C(=O)c2c3ccc(N)cc3nn2CCC(N)=O)cc1
- cell number change: 8.38%
- AC50 [2]: 0.0651 µM [rising, full curve, poor fit]

Structure (SMILES): COc1ccc(C2c3c(ccc4ccccc34)Oc3ncn4nc(CO/N=C/c5ccccc5)nc4c32)cc1 (configuration not stated)
- cell number change: 27.8%
- AC50 [1]: 6.51 µM [falling, single point]

Structure (SMILES): O=C(Nc1ccc(Oc2ccc3ccccc3c2)cc1)c1ccco1
- cell number change: -21.5%

Structure (SMILES): O=C(/C=C/c1ccc(F)cc1)OCC(=O)c1ccc[nH]1
- cell number change: -8%

Structure (SMILES): CCCCn1nnnc1NCc1cccc(OC)c1OC
- cell number change: 67.3%
- AC50 [2]: 18.4 µM [rising, single point]

Structure (SMILES): COc1ccc(C2(NC(C)=O)CCN(C(=O)CCC(=O)O)CC2)cc1
- cell number change: 10.9%
- AC50 [1]: 23.1 µM [falling, single point]

Structure (SMILES): CC(On1nnc2ccc(S(=O)(=O)N3CCOCC3)cc21)C(=O)Nc1ccccc1F (configuration not stated)
- cell number change: 41%
- AC50 [2]: 20.6 µM [rising, single point]

Structure (SMILES): O=C(CCn1cnc2ccccc21)N/N=C/c1ccc(O)cc1
- cell number change: 18%

Structure (SMILES): CC(=O)NC1=NN(C(C)=O)C(C)(c2ccc(C)o2)S1 (configuration not stated)
- cell number change: 35.3%
- AC50 [2]: 32.6 µM [rising, partial curve, poor fit]

Structure (SMILES): CC(NC(=O)OCc1ccccc1)C(=O)N1CC(O)CC1C(=O)O (configuration not stated)
- cell number change: -155%
- AC50 [2]: 4.11 µM [falling, full curve]
- AC50 [1]: 29.1 µM [falling, single point]

Structure (SMILES): CC(C)N(C(=O)COC(=O)c1ccc([N+](=O)[O-])cc1)c1ccccc1
- AC50 [1]: 6.51 µM [rising, single point]

Structure (SMILES): O=C(COC(=O)c1cnccn1)c1ccc(Br)cc1
- cell number change: 3.23%
- AC50 [1]: 0.82 µM [falling, full curve, poor fit]

Structure (SMILES): COc1cc(SC)ccc1C(=O)Nc1cc(C)ccn1
- cell number change: -55.6%
- AC50 [2]: 1.64 µM [falling, partial curve]
- AC50 [1]: 20.6 µM [falling, single point]
